Measurements taken from the supplement of paper PMC10849652.
The other results are listed elsewhere or left out.

Sequences of proteins named here, by UniProt entry; tags and fusion partners are left off. A change or cut given only in a name is not applied to a line headed by its entry.
UniProt Q13530: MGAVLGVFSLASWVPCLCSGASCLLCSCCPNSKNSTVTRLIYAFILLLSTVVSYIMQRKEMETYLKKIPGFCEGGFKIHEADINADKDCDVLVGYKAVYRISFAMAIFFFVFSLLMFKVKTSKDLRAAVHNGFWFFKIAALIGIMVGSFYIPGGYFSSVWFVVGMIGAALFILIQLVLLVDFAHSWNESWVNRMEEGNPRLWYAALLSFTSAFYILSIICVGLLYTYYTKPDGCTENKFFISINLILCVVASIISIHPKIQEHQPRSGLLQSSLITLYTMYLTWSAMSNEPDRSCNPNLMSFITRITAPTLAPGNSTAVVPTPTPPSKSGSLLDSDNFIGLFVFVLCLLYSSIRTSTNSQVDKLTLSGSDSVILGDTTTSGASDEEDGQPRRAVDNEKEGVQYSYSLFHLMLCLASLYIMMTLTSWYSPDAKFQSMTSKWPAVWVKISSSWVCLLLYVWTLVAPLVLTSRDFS
UniProt Q14493, whole entry, looked up: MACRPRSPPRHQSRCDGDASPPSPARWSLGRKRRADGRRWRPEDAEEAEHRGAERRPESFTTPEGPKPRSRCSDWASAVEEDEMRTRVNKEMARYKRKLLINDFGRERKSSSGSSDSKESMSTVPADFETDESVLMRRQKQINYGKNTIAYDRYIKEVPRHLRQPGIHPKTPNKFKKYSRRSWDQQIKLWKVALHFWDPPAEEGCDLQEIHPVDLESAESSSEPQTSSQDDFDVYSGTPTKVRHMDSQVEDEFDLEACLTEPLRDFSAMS
UniProt Q9UQ13: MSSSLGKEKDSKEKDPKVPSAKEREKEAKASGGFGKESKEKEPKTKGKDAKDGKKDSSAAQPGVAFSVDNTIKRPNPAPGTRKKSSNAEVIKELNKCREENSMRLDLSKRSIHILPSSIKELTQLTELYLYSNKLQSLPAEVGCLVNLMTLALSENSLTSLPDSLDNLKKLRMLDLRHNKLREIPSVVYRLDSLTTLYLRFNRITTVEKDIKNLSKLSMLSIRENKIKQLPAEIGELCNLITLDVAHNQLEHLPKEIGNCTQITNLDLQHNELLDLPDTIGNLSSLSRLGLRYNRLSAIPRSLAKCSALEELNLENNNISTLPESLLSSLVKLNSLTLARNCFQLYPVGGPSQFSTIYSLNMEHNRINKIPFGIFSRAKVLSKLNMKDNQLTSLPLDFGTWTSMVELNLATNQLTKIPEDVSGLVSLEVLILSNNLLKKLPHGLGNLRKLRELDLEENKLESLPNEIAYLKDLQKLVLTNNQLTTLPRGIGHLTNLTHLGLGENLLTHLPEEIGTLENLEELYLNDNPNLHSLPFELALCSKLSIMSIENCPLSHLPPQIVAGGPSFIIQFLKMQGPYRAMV
UniProt Q01105, whole entry, looked up: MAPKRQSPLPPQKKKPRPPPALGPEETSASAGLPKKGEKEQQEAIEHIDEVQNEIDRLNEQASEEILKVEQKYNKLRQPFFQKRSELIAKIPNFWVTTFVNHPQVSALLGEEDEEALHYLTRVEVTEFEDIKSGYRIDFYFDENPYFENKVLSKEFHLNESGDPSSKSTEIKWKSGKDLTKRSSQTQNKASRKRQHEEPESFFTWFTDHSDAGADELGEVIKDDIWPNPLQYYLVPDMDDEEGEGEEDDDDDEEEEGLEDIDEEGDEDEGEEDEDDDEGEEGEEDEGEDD
UniProt Q6P4A7: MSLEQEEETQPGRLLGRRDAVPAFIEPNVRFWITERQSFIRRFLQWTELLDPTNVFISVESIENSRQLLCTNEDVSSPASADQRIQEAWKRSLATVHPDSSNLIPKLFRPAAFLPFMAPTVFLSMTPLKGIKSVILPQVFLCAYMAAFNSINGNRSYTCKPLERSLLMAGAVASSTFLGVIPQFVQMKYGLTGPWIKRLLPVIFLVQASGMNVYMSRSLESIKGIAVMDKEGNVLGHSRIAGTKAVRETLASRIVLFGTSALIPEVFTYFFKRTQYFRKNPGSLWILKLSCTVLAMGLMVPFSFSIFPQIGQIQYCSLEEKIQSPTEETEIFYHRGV
UniProt Q8N697: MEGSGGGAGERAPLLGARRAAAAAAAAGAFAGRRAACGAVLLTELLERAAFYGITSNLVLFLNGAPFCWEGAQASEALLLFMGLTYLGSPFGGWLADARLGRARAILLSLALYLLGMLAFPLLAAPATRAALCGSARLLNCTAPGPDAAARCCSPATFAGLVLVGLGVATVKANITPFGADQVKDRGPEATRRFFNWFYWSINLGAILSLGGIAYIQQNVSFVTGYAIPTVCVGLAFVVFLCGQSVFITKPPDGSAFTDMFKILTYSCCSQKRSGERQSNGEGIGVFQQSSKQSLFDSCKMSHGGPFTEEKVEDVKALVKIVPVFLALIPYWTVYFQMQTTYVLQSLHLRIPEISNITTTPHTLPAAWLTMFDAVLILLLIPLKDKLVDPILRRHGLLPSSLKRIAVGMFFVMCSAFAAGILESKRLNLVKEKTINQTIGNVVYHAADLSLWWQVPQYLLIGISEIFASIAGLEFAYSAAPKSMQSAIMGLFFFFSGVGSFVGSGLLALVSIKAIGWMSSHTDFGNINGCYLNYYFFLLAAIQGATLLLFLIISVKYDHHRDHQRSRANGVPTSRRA
UniProt Q9BWJ5: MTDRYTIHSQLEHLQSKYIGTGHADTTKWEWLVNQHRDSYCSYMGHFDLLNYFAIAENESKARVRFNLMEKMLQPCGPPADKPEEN
UniProt Q8N6T7, whole entry, looked up: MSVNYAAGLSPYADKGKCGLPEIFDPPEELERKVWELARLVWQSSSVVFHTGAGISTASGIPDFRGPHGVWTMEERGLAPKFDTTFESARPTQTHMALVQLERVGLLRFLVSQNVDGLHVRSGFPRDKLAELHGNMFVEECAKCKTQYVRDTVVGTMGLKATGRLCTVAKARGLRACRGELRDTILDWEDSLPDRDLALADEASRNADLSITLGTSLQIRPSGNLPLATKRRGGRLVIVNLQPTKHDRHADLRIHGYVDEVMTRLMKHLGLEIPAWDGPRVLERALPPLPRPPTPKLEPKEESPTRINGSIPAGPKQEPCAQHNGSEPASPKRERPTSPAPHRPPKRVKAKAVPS
UniProt Q96BD8: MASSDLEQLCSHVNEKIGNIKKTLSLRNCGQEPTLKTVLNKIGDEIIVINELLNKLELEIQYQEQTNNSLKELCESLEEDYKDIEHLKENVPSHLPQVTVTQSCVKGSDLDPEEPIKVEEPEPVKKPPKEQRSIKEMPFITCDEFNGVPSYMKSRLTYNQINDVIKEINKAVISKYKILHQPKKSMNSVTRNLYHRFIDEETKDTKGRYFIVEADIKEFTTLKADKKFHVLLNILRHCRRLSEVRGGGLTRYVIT
UniProt Q96ES7: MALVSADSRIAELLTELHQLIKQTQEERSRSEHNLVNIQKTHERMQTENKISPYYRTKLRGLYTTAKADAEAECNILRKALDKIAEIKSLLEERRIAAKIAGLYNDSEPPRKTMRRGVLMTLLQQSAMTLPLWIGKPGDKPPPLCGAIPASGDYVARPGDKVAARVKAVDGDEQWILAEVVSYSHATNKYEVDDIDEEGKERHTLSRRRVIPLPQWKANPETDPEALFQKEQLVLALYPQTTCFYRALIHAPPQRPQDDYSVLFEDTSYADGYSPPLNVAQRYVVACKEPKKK
UniProt P29353: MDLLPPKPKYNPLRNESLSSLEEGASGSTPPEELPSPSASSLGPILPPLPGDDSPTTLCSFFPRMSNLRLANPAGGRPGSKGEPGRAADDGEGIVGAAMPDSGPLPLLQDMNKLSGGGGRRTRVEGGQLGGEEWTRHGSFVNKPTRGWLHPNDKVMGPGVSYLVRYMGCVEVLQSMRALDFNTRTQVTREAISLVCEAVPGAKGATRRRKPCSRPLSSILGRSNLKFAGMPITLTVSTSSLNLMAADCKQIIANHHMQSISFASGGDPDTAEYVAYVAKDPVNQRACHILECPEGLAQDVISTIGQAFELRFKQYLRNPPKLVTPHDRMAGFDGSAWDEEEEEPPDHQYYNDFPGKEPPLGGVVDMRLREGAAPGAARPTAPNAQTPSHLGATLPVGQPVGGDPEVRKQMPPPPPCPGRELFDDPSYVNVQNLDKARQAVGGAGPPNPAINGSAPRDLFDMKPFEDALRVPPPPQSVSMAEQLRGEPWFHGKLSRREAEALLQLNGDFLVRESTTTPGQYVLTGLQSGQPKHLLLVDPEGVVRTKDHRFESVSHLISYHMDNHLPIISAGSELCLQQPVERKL
UniProt Q99574: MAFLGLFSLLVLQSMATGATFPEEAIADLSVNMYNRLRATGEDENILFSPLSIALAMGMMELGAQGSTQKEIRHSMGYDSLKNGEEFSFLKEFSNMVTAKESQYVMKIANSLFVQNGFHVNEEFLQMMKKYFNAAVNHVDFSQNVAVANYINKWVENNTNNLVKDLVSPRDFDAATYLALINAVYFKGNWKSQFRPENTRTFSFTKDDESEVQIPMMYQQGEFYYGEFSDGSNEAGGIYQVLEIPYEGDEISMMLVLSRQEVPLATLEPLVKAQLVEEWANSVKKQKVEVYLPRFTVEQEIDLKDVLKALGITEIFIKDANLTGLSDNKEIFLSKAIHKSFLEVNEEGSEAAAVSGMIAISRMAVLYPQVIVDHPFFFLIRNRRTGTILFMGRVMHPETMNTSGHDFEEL
UniProt Q86XK3: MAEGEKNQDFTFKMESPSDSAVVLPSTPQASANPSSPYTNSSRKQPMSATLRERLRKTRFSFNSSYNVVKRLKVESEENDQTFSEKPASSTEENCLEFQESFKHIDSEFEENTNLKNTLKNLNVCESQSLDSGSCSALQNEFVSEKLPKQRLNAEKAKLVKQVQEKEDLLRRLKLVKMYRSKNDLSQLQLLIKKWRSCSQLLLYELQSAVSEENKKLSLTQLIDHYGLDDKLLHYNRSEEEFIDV
UniProt Q9NRX5: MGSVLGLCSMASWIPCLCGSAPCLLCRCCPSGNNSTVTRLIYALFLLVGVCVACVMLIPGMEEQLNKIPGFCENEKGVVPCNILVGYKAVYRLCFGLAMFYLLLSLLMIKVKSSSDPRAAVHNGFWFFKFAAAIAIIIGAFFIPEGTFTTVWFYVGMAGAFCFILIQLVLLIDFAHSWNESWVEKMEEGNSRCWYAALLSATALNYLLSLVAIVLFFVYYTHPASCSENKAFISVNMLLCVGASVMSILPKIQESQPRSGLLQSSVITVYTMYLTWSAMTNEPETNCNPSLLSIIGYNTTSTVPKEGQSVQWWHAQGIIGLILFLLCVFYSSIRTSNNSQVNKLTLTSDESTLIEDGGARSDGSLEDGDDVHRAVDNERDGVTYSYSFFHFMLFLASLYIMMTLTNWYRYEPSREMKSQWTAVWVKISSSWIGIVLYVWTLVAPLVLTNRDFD
UniProt O75533, whole entry, looked up: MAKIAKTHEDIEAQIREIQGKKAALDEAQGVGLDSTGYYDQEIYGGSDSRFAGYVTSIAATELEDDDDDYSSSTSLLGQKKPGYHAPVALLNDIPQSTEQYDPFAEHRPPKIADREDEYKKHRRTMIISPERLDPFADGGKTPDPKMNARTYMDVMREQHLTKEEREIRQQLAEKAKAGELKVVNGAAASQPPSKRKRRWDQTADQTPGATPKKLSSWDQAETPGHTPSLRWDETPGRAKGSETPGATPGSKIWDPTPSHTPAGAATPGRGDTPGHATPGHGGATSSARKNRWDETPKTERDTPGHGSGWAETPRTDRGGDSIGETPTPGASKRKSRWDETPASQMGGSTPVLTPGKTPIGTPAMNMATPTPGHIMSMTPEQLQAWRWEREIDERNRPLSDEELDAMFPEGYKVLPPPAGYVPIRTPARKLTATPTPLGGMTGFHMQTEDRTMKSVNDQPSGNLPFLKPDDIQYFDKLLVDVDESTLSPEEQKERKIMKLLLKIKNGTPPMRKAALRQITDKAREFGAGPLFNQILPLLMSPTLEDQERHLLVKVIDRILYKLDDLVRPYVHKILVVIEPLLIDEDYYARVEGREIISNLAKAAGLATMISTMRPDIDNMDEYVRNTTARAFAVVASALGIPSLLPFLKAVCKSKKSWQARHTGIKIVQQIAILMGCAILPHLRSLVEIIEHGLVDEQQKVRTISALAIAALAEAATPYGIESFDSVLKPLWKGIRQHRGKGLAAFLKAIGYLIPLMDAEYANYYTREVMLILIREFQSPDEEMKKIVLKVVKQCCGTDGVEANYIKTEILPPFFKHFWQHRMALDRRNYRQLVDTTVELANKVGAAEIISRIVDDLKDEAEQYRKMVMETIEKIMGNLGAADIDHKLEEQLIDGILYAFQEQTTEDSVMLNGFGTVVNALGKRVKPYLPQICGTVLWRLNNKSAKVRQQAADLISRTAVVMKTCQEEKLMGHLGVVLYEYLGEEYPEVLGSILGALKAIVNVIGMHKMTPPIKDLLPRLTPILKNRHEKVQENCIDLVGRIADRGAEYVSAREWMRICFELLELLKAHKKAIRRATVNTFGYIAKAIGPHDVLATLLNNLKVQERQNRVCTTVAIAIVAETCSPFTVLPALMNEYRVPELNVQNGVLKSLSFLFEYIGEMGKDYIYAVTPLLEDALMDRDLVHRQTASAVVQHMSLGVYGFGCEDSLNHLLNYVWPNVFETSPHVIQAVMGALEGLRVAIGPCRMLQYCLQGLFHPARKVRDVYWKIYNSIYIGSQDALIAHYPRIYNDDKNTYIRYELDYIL

How the values were obtained:
Experiment in all cases: log2 fold change, soluble protein after heating vs DMSO (PISA); higher = thermal stabilisation; K562 lysate, 10 uM; active = over 0.2 and 3.5 SD of the protein, either way, in both replicates (recomputed)
[1] = compound: NCC(=O)Nc1ccc(-n2nc(C(F)(F)F)cc2-c2ccc3c(ccc4ccccc43)c2)cc1
Procedure, shortened: (§1)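 A 30 min treatment with 10 μM compound was applied to crude K562 extract at 1 mg/mL protein in PBS pH 7.4 with 1 mM MgCl2. Heating for 3 min spanned 48°C-58°C, after which aliquots were pooled, adjusted to 0.5% NP-40 at 4°C and spun at 21,000xg for 90 min. TMTpro 16plex LC-MS/MS of the supernatant, with channel sums equalised, gave values recorded as log-two fold change in thermal stability against solvent controls, from duplicates.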

vorinostat = compound: O=C(CCCCCCC(=O)Nc1ccccc1)NO [vorinostat]
Procedure, shortened: as §1

silmitasertib = compound: O=C(O)c1ccc2c(c1)nc(Nc1cccc(Cl)c1)c1ccncc12 [silmitasertib]
Procedure, shortened: as §1

[2] = compound: O=C1NC(=O)C(c2cnc3ccccn23)=C1c1cn2c3c(cc(F)cc13)CN(C(=O)N1CCCCC1)CC2
Procedure, shortened: as §1

entospletinib = compound: c1cn2cc(-c3ccc4cn[nH]c4c3)nc(Nc3ccc(N4CCOCC4)cc3)c2n1 [entospletinib]
Procedure, shortened: as §1

Measured: log2 fold change

SERINC3 (UniProt Q13530)
inactive: [1] -0.027 | vorinostat 0.019 | silmitasertib -0.012 | [2] 0.017 | entospletinib 0.024

SERGEF (UniProt Q9UGK8)
inactive: [1] 0.011 | vorinostat -0.189 | silmitasertib -0.04 | [2] -0.068 | entospletinib -0.024

SHPRH (UniProt Q149N8)
inactive: [1] -0.025 | vorinostat -0.417 | silmitasertib 0.087 | [2] 0.081 | entospletinib -0.138

SLBP (UniProt Q14493)
inactive: [1] -0.011 | vorinostat -0.179 | silmitasertib 0.104 | [2] -0.035 | entospletinib 0.039

SHOC2 (UniProt Q9UQ13)
inactive: [1] 0.038 | vorinostat -0.03 | silmitasertib 0.029 | [2] 0.02 | entospletinib 0.003

SET isoform 2 (UniProt Q01105)
inactive: [1] 0.019 | vorinostat 0.104 | silmitasertib -0.038 | [2] 0.001 | entospletinib -0.01

SFXN4 (UniProt Q6P4A7)
inactive: [1] -0.038 | vorinostat -0.066 | silmitasertib -0.076 | [2] -0.034 | entospletinib -0.02

SH3BP5L (UniProt Q7L8J4)
inactive: [1] -0.003 | vorinostat -0.025 | silmitasertib -0.068 | [2] 0.051 | entospletinib 0.009

SLC15A4 (UniProt Q8N697)
inactive: [1] 0.102 | vorinostat 0.118 | silmitasertib 0.084 | [2] -0.059 | entospletinib -0.001

SF3B5 (UniProt Q9BWJ5)
inactive: [1] -0.074 | vorinostat -0.34 | silmitasertib 0.03 | [2] 0.092 | entospletinib -0.069

SIRT6 (UniProt Q8N6T7)
inactive: [1] 0.05 | vorinostat -0.057 | silmitasertib 0.149 | [2] -0.085 | entospletinib -0.022

SLC12A2 (UniProt P55011)
inactive: [1] 0.005 | vorinostat 0.05 | silmitasertib -0.003 | [2] 0.007 | entospletinib 0.031

SKA1 (UniProt Q96BD8)
active: vorinostat -0.586
inactive: [1] 0.057 | silmitasertib -0.036 | [2] -0.07 | entospletinib -0.021

SLC12A4 (UniProt Q9UP95)
inactive: [1] 0.024 | vorinostat 0.106 | silmitasertib -0.157 | [2] 0.041 | entospletinib -0.008

SGF29 (UniProt Q96ES7)
inactive: [1] 0.052 | vorinostat -0.066 | silmitasertib 0.047 | [2] 0 | entospletinib 0.012

SHC1 isoform 6 (UniProt P29353)
inactive: [1] 0.029 | vorinostat 0.025 | silmitasertib -0.017 | [2] -0.055 | entospletinib -0.058

SGPL1 (UniProt O95470)
inactive: [1] 0.015 | vorinostat 0.032 | silmitasertib 0.014 | [2] 0.061 | entospletinib 0.037

SFXN4 isoform 3 (UniProt Q6P4A7)
inactive: [1] 0.1 | vorinostat 0.084 | silmitasertib -0.171 | [2] -0.003 | entospletinib -0.04

SERPINI1 (UniProt Q99574)
inactive: [1] -0.04 | vorinostat 0.124 | silmitasertib -0.021 | [2] -0.003 | entospletinib -0.016

SIL1 (UniProt Q9H173)
inactive: [1] -0.006 | vorinostat 0.113 | silmitasertib -0.104 | [2] 0.019 | entospletinib -0.015

SFSWAP isoform 2 (UniProt Q12872)
inactive: [1] 0.012 | vorinostat -0.005 | silmitasertib -0.094 | [2] -0.031 | entospletinib -0.021

SFR1 isoform 2 (UniProt Q86XK3)
inactive: [1] 0.092 | vorinostat -0.074 | silmitasertib 0.023 | [2] -0.026 | entospletinib -0.043

SERINC1 (UniProt Q9NRX5)
inactive: [1] -0.012 | vorinostat -0.254 | silmitasertib -0.026 | [2] -0.058 | entospletinib 0.028

Two neighbouring records already listed, quoted:
SERPINI1 (UniProt Q99574)
inactive: [1] -0.04 | vorinostat 0.124 | silmitasertib -0.021 | [2] -0.003 | entospletinib -0.016

SIL1 (UniProt Q9H173)
inactive: [1] -0.006 | vorinostat 0.113 | silmitasertib -0.104 | [2] 0.019 | entospletinib -0.015

Following part.

SF3B1 (UniProt O75533)
inactive: [1] -0.004 | vorinostat -0.205 | silmitasertib 0.042 | [2] 0.008 | entospletinib 0.02
